{"source": "the supplement of paper PMC8728848", "assay_in_all_cases": "glycan array binding signal (z-score within array); higher = stronger binding", "conditions_in_all_cases": "glycan notation: IUPAC condensed, linker removed", "key": {"[1]": {"target": "Neu5Ac(a2-3)Gal(b1-4)GlcNAc6S", "how_it_was_run": "(§1)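 The binding signal is a Z-score computed within each array and averaged over linkers. Arrays of the same protein sequence at different concentrations or buffers were also averaged together. Data originate from 3228 arrays in the Consortium for Functional Glycomics database, kept only where the protein sequence was available.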"}, "[2]": {"target": "Neu5Ac(a2-3)Gal(b1-4)[Fuc(a1-3)]GlcNAc", "how_it_was_run": "as §1"}, "[3]": {"target": "Neu5Ac(a2-3)Gal(b1-4)[Fuc(a1-3)]GlcNAc(b1-3)Gal", "how_it_was_run": "as §1"}, "[4]": {"target": "Neu5Ac(a2-3)Gal(b1-4)[Fuc(a1-3)]GlcNAc(b1-3)Gal(b1-4)GlcNAc", "how_it_was_run": "as §1"}, "[5]": {"target": "Neu5Ac(a2-3)Gal(b1-4)[Fuc(a1-3)]GlcNAc(b1-3)Gal(b1-4)[Fuc(a1-3)]GlcNAc(b1-3)Gal(b1-4)[Fuc(a1-3)]GlcNAc", "how_it_was_run": "as §1"}, "[6]": {"target": "Neu5Ac(a2-3)Gal(b1-4)[Fuc(a1-3)]GlcNAc(b1-6)[Gal(b1-3)]GalNAc", "how_it_was_run": "as §1"}, "[7]": {"target": "Neu5Ac(a2-3)Gal(b1-4)[Fuc(a1-3)]GlcNAc6S", "how_it_was_run": "as §1"}, "[8]": {"target": "Neu5Ac(a2-3)Gal6S(b1-4)GlcNAc", "how_it_was_run": "as §1"}, "[9]": {"target": "Neu5Ac(a2-3)Gal6S(b1-4)[Fuc(a1-3)]GlcNAc", "how_it_was_run": "as §1"}, "Neu5Ac(a2-3)GalNAc": {"target": "Neu5Ac(a2-3)GalNAc", "how_it_was_run": "as §1"}, "[10]": {"target": "Neu5Ac(a2-3)GalNAc(b1-4)GlcNAc", "how_it_was_run": "as §1"}, "[11]": {"target": "Neu5Ac(a2-3)[GalNAc(b1-4)]Gal(b1-4)Glc", "how_it_was_run": "as §1"}, "[12]": {"target": "Neu5Ac(a2-3)[GalNAc(b1-4)]Gal(b1-4)GlcNAc", "how_it_was_run": "as §1"}, "[13]": {"target": "Neu5Ac(a2-3)[Neu5Ac(a2-6)]GalNAc", "how_it_was_run": "as §1"}, "Neu5Ac(a2-6)Gal": {"target": "Neu5Ac(a2-6)Gal", "how_it_was_run": "as §1"}, "Neu5Ac(a2-6)Gal(b1-4)Glc": {"target": "Neu5Ac(a2-6)Gal(b1-4)Glc", "how_it_was_run": "as §1"}, "[14]": {"target": "Neu5Ac(a2-6)Gal(b1-4)GlcNAc", "how_it_was_run": "as §1"}, "[15]": {"target": "Neu5Ac(a2-6)Gal(b1-4)GlcNAc(b1-2)Man(a1-3)[Gal(b1-4)GlcNAc(b1-2)Man(a1-6)]Man(b1-4)GlcNAc(b1-4)GlcNAc", "how_it_was_run": "as §1"}, "[16]": {"target": "Neu5Ac(a2-6)Gal(b1-4)GlcNAc(b1-2)Man(a1-3)[GlcNAc(b1-2)Man(a1-6)]Man(b1-4)GlcNAc(b1-4)GlcNAc", "how_it_was_run": "as §1"}, "[17]": {"target": "Neu5Ac(a2-6)Gal(b1-4)GlcNAc(b1-2)Man(a1-3)[GlcNAc(b1-2)Man(b1-4)GlcNAc(b1-2)Man(a1-6)]Man(b1-4)GlcNAc(b1-4)GlcNAc", "how_it_was_run": "as §1"}, "[18]": {"target": "Neu5Ac(a2-6)Gal(b1-4)GlcNAc(b1-2)Man(a1-3)[Neu5Ac(a2-6)Gal(b1-4)GlcNAc(b1-2)Man(a1-6)]Man(b1-4)GlcNAc(b1-4)GlcNAc", "how_it_was_run": "as §1"}, "[19]": {"target": "Neu5Ac(a2-6)Gal(b1-4)GlcNAc(b1-2)Man(a1-6)[Gal(b1-4)GlcNAc(b1-2)Man(a1-3)]Man(b1-4)GlcNAc(b1-4)GlcNAc", "how_it_was_run": "as §1"}, "[20]": {"target": "Neu5Ac(a2-6)Gal(b1-4)GlcNAc(b1-2)Man(a1-6)[GlcNAc(b1-2)Man(a1-3)]Man(b1-4)GlcNAc(b1-4)GlcNAc", "how_it_was_run": "as §1"}, "[21]": {"target": "Neu5Ac(a2-6)Gal(b1-4)GlcNAc(b1-3)Gal(b1-4)GlcNAc", "how_it_was_run": "as §1"}, "[22]": {"target": "Neu5Ac(a2-6)Gal(b1-4)GlcNAc(b1-3)Gal(b1-4)[Fuc(a1-3)]GlcNAc(b1-3)Gal(b1-4)[Fuc(a1-3)]GlcNAc", "how_it_was_run": "as §1"}, "[23]": {"target": "Neu5Ac(a2-6)Gal(b1-4)GlcNAc6S", "how_it_was_run": "as §1"}, "Neu5Ac(a2-6)GalNAc": {"target": "Neu5Ac(a2-6)GalNAc", "how_it_was_run": "as §1"}, "[24]": {"target": "Neu5Ac(a2-6)GalNAc(b1-4)GlcNAc", "how_it_was_run": "as §1"}, "Neu5Ac(a2-8)Neu5Ac": {"target": "Neu5Ac(a2-8)Neu5Ac", "how_it_was_run": "as §1"}, "[25]": {"target": "Neu5Ac(a2-8)Neu5Ac(a2-3)Gal(b1-4)Glc", "how_it_was_run": "as §1"}, "[26]": {"target": "Neu5Ac(a2-8)Neu5Ac(a2-3)[GalNAc(b1-4)]Gal(b1-4)Glc", "how_it_was_run": "as §1"}, "[27]": {"target": "Neu5Ac(a2-8)Neu5Ac(a2-8)Neu5Ac", "how_it_was_run": "as §1"}, "[28]": {"target": "Neu5Ac(a2-8)Neu5Ac(a2-8)Neu5Ac(a2-3)Gal(b1-4)Glc", "how_it_was_run": "as §1"}, "[29]": {"target": "Neu5Ac(a2-8)Neu5Ac(a2-8)Neu5Ac(a2-3)[GalNAc(b1-4)]Gal(b1-4)Glc", "how_it_was_run": "as §1"}, "[30]": {"target": "Neu5Ac(a2-8)Neu5Ac(a2-8)Neu5Ac(a2-8)Neu5Ac(a2-3)[GalNAc(b1-4)]Gal(b1-4)Glc", "how_it_was_run": "as §1"}, "[31]": {"target": "Neu5Ac(b2-6)Gal(b1-4)GlcNAc", "how_it_was_run": "as §1"}, "Neu5Ac(b2-6)GalNAc": {"target": "Neu5Ac(b2-6)GalNAc", "how_it_was_run": "as §1"}, "[32]": {"target": "Neu5Ac9Ac(a2-6)Gal(b1-4)GlcNAc", "how_it_was_run": "as §1"}, "[33]": {"target": "Neu5Gc(a2-3)Gal(b1-3)GlcNAc", "how_it_was_run": "as §1"}, "[34]": {"target": "Neu5Gc(a2-3)Gal(b1-3)[Fuc(a1-4)]GlcNAc", "how_it_was_run": "as §1"}, "Neu5Gc(a2-3)Gal(b1-4)Glc": {"target": "Neu5Gc(a2-3)Gal(b1-4)Glc", "how_it_was_run": "as §1"}, "[35]": {"target": "Neu5Gc(a2-3)Gal(b1-4)GlcNAc", "how_it_was_run": "as §1"}, "[36]": {"target": "Neu5Gc(a2-3)Gal(b1-4)[Fuc(a1-3)]GlcNAc", "how_it_was_run": "as §1"}, "[37]": {"target": "Neu5Gc(a2-6)Gal(b1-4)GlcNAc", "how_it_was_run": "as §1"}, "Neu5Gc(a2-6)GalNAc": {"target": "Neu5Gc(a2-6)GalNAc", "how_it_was_run": "as §1"}, "[38]": {"target": "Neu5Gc(b2-6)Gal(b1-4)GlcNAc", "how_it_was_run": "as §1"}}, "note": "This is one part of the list."}
{"binder": "SLLPI (Homo sapiens), Q8IXA5 (protein) MVSALRGAPLIRVHSSPVSSPSVSGPRRLVSCLSSQSSALSQSGGGSTSAAGIEARSRALRRRWCPAGIMLLALVCLLSCLLPSSEAKLYGRCELARVLHDFGLDGYRGYSLADWVCLAYFTSGFNAAALDYEADGSTNNGIFQINSRRWCSNLTPNVPNVCRMYCSDLLNPNLKDTVICAMKITQEPQGLGYWEAWRHHCQGKDLTEWVDGCDF", "values": [{"measurement": "glycan array binding signal (z-score)", "setting": "[1]", "value": 0.437}, {"measurement": "glycan array binding signal (z-score)", "setting": "[2]", "value": -0.047}, {"measurement": "glycan array binding signal (z-score)", "setting": "[3]", "value": -0.234}, {"measurement": "glycan array binding signal (z-score)", "setting": "[4]", "value": 0.654}, {"measurement": "glycan array binding signal (z-score)", "setting": "[5]", "value": 0.311}, {"measurement": "glycan array binding signal (z-score)", "setting": "[6]", "value": 0.494}, {"measurement": "glycan array binding signal (z-score)", "setting": "[7]", "value": 0.031}, {"measurement": "glycan array binding signal (z-score)", "setting": "[8]", "value": -0.261}, {"measurement": "glycan array binding signal (z-score)", "setting": "[9]", "value": -0.072}, {"measurement": "glycan array binding signal (z-score)", "setting": "Neu5Ac(a2-3)GalNAc", "value": -0.101}, {"measurement": "glycan array binding signal (z-score)", "setting": "[10]", "value": -0.64}, {"measurement": "glycan array binding signal (z-score)", "setting": "[11]", "value": -0.288}, {"measurement": "glycan array binding signal (z-score)", "setting": "[12]", "value": -0.532}, {"measurement": "glycan array binding signal (z-score)", "setting": "[13]", "value": 0.313}, {"measurement": "glycan array binding signal (z-score)", "setting": "Neu5Ac(a2-6)Gal", "value": 0.171}, {"measurement": "glycan array binding signal (z-score)", "setting": "Neu5Ac(a2-6)Gal(b1-4)Glc", "value": -0.06}, {"measurement": "glycan array binding signal (z-score)", "setting": "[14]", "value": -0.117}, {"measurement": "glycan array binding signal (z-score)", "setting": "[15]", "value": 0.118}, {"measurement": "glycan array binding signal (z-score)", "setting": "[16]", "value": -0.345}, {"measurement": "glycan array binding signal (z-score)", "setting": "[17]", "value": 0.145}, {"measurement": "glycan array binding signal (z-score)", "setting": "[18]", "value": 0.032}, {"measurement": "glycan array binding signal (z-score)", "setting": "[19]", "value": -0.306}, {"measurement": "glycan array binding signal (z-score)", "setting": "[20]", "value": -0.255}, {"measurement": "glycan array binding signal (z-score)", "setting": "[21]", "value": 0.493}, {"measurement": "glycan array binding signal (z-score)", "setting": "[22]", "value": -0.206}, {"measurement": "glycan array binding signal (z-score)", "setting": "[23]", "value": 0.03}, {"measurement": "glycan array binding signal (z-score)", "setting": "Neu5Ac(a2-6)GalNAc", "value": -0.41}, {"measurement": "glycan array binding signal (z-score)", "setting": "[24]", "value": -0.697}, {"measurement": "glycan array binding signal (z-score)", "setting": "Neu5Ac(a2-8)Neu5Ac", "value": -0.007}, {"measurement": "glycan array binding signal (z-score)", "setting": "[25]", "value": -0.094}, {"measurement": "glycan array binding signal (z-score)", "setting": "[26]", "value": 0.102}, {"measurement": "glycan array binding signal (z-score)", "setting": "[27]", "value": -0.009}, {"measurement": "glycan array binding signal (z-score)", "setting": "[28]", "value": -0.507}, {"measurement": "glycan array binding signal (z-score)", "setting": "[29]", "value": 0.054}, {"measurement": "glycan array binding signal (z-score)", "setting": "[30]", "value": 0.298}, {"measurement": "glycan array binding signal (z-score)", "setting": "[31]", "value": -0.505}, {"measurement": "glycan array binding signal (z-score)", "setting": "Neu5Ac(b2-6)GalNAc", "value": -0.39}, {"measurement": "glycan array binding signal (z-score)", "setting": "[32]", "value": -0.472}, {"measurement": "glycan array binding signal (z-score)", "setting": "[33]", "value": 0.123}, {"measurement": "glycan array binding signal (z-score)", "setting": "[34]", "value": 0.002}, {"measurement": "glycan array binding signal (z-score)", "setting": "Neu5Gc(a2-3)Gal(b1-4)Glc", "value": 0.335}, {"measurement": "glycan array binding signal (z-score)", "setting": "[35]", "value": -0.286}, {"measurement": "glycan array binding signal (z-score)", "setting": "[36]", "value": -0.339}, {"measurement": "glycan array binding signal (z-score)", "setting": "[37]", "value": -0.251}, {"measurement": "glycan array binding signal (z-score)", "setting": "Neu5Gc(a2-6)GalNAc", "value": -0.28}, {"measurement": "glycan array binding signal (z-score)", "setting": "[38]", "value": -0.447}]}
